## Library screening results

The chains behind the UniProt entries cited, without tags or fusion partners.
UniProt E9BF75, entry or part of it: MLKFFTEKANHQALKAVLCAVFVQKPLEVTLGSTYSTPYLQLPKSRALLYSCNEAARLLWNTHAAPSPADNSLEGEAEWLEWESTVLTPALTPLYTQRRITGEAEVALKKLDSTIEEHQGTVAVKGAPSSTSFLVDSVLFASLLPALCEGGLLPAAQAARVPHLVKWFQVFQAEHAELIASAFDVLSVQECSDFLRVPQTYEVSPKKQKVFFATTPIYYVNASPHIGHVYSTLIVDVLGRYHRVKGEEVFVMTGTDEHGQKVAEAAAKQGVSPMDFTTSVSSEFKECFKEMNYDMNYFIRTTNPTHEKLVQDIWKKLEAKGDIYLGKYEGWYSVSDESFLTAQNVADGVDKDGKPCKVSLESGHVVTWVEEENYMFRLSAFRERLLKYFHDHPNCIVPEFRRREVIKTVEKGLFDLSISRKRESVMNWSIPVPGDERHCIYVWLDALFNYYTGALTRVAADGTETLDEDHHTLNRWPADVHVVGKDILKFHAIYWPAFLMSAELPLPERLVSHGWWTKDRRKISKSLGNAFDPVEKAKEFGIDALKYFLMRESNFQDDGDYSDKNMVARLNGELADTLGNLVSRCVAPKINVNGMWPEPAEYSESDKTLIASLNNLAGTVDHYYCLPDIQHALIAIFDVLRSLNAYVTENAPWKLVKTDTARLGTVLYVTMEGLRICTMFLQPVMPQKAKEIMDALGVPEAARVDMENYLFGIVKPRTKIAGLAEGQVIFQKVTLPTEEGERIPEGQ

LdMetRS: 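Methionyl-tRNA synthetase (putative), Leishmania donovani (UniProt E9BF75). Primary screen of methionyl-tRNA synthetase; the read-out is not stated. The test concentration is not given. Values are per cent inhibition. Size under these conditions: about 68,000 compounds, about 24 of them at 50% or above in at least one test.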
Mtb heat-shock: 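Assay on Mycobacterium tuberculosis, filed only as a heat shock assay from Cornell; the read-out is not stated. The concentration is filed as 10 mM, unlikely as a test dose, so the dose is not known. Higher reads as stronger inhibition (inferred: compounds with an IC50 in retests scored well above the rest). Size under these conditions: about 69,000 compounds, about 930 of them at 50% or above in at least one test.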

All values are in %. The controls that fix the scale are not given in the record; negative values are as filed. Compounds were drawn at random from those tested, without regard to their results. A dash means the value is not listed here; it may have been measured.

Compound	LdMetRS	Mtb heat-shock
O=C(O)C(F)(F)F.O=C(O)C(F)(F)F.[H][C@@]12COC[C@@H](C(=O)N3CCCCO3)[C@]1([H])CN(Cc1cnn(C)c1)C2	-	6.742
Cc1cnn(CCCN2C(=O)CCc3ccccc32)c1	1.718	14.8
Cn1cc(-c2nc(C(=O)N3CCCC3c3cnn(C)c3)cs2)cn1 (centres unmarked)	15.26	12.06
CC(C)N1CCc2onc(Cn3cccc3)c2C1	10.95	-
CC(NC(=O)NCCC(=O)OC(C)(C)C)c1nncn1C (centres unmarked)	8.189	-12.7
COc1ccc(C2CC(=O)Nc3nc(N4CCOCC4)sc32)cc1 (centres unmarked)	17.56	1.511
N#Cc1ccccc1OCCN1CCN(C(=O)C2CCCC2)CC1	2.452	-7.294
COC(=O)[C@@H]1CN(S(=O)(=O)c2ccccc2)CCN1S(C)(=O)=O	15.38	1.33
CNC(=O)C1CCN(c2cc(C3CCNCC3)nc(C)n2)C1 (centres unmarked)	7.317	1.569
O=C(N1CCOCC1)[C@@]12CCO[C@@H]1CCN(C1CCC1)C2	7.205	-
C=C1C(C)(C)[C@H]2CC[C@]1(C(=O)N1CCC(n3cc(CCO)nn3)CC1)C2	17.72	-
Cn1cc(CN2CCCC23CCN(C(=O)c2cccn2C)CC3)cn1	9.013	-
[H][C@]12CN(C(C)=O)C[C@@]1([H])OCCN(S(=O)(=O)C1CC1)C2	-	15.78
CC(C)CC(NC(=O)c1ccc[nH]1)C(=O)N1CCC(CO)CC1 (centres unmarked)	1.95	4.603
CNC(=O)c1cccc(CCNC(=O)N2CCc3ccccc3C2)c1	0.3484	-27.16
COc1ccc(NC(=O)CCC2CCCN(S(=O)(=O)C3CC3)C2)c(C)c1 (centres unmarked)	15.84	9.47
Cc1nnsc1C(=O)NCCn1ccc(-c2ccncc2)n1	6.034	-51.12
CCS(=O)(=O)N1CCC2(CC1)CC1(CCN(CCOC)CC1)C(=O)N2C.O=C(O)C(F)(F)F	-	-14.13
O=C(O)c1ccnc(-c2ccnc(COc3cccc(F)c3)n2)c1	7.781	-7.802
OC1=C2C(=Nc3n[nH]c(O)c3C2c2ccccc2Cl)CCC1 (centres unmarked)	18.54	10.48
CN(C)c1nc2c(c(=O)[nH]1)CCN(C(=O)c1cccc3nccnc13)C2	7.087	-10.14
O=c1c(S(=O)(=O)N2CCCC2)cccn1Cc1c(F)cccc1Cl	13.67	6.37
COc1ccccc1CC(=O)NCCCN1CCCC1C(=O)N(C)C (centres unmarked)	14.29	26.87
[H][C@@]12CN(Cc3ccc(OC)cc3)C[C@]1([H])OCC(=O)N2Cc1nccn1C	-	-31.33
CN1CC(=O)N(c2ccccc2)CC12CCN(C(=O)c1cnccn1)C2.O=C(O)C(F)(F)F (centres unmarked)	-	-25.23
Cc1cc(NC(=O)NCc2ccccn2)n(C)n1	13.89	3.344
CC(=O)CSc1sc2c(O)cc(=O)[nH]c2c1C(N)=O	12.46	-3.284
CN(Cc1ccco1)Cc1cnc2n1CCN(c1ccccn1)CC2	11.59	-
CC(C(=O)NCCOc1ccc2c(c1)CCC2)n1cncn1 (centres unmarked)	4.789	-19.94
O=C(NC[C@]12COC[C@H]1CN(Cc1nccs1)C2)c1ccsc1	6.628	-
COCC1CN(Cc2ccncc2)Cc2nnn(CC3CC3)c21.O=C(O)C(F)(F)F.O=C(O)C(F)(F)F (centres unmarked)	-	-36.18
NCCO[C@H]1C[C@@H](O)C12CCN(Cc1c(F)cccc1F)CC2	15.84	10.33
CC(C)c1csc(C(=O)N2CCCC(Cn3cc(CO)nn3)C2)n1 (centres unmarked)	18.12	-21.95
COc1c(C2CCCN2C(=O)c2ccc(N(C)C)nn2)c(C)nn1C (centres unmarked)	10.5	-3.702
CC(C)c1nnc2n1CCN(CCCS(=O)(=O)c1ccccc1)C2	8.502	-19.59
Cn1cccc1C(=O)N1CC[C@H]2[C@@H]1CCC(=O)N2c1ccccc1	4.498	-
CNc1nc(C(=O)N2CCCN(c3ccnc(C)c3)CC2)cs1	21.67	-13.58
C=C(C)COc1ccccc1C(=O)N1CCC(C(=O)NCC)C1 (centres unmarked)	13.84	7.444
N#Cc1cccc(N2CCCC3(CNCCO3)C2)n1.O=C(O)C(F)(F)F.O=C(O)C(F)(F)F (centres unmarked)	-	-40.49
COc1ccc(OC)c(C(=O)N2CCCCC2Cn2cccn2)c1 (centres unmarked)	14.46	-6.849
Cc1nc2ccccn2c1CC(=O)N[C@@H]1CC[C@@H](N2CCOCC2)[C@@H]1O	19.29	-8.138
Cc1nc(NC(C)C)nc2c1CN(Cc1cccs1)CC2	14.49	99.87
Cc1cc(C(=O)N[C@H]2CC[C@@]3(CCC(=O)N3CC3CC3)CC2)no1	7.222	-0.3918
[H][C@@]12CCN(Cc3cccnc3OC)[C@]1([H])CC[C@@H](c1nnc(C)o1)O2	-	6.065
CC(NC(=O)CN(C)S(C)(=O)=O)c1ccc(F)cc1 (centres unmarked)	8.71	-6.171
CN(C)C(=O)CN1C(=O)CCC12CCN(Cc1ccsc1)CC2.O=C(O)C(F)(F)F	-	-0.1041
Cc1cc(C)n(-c2cccc(C(=O)Nc3n[nH]c(C4CCCO4)n3)c2)n1 (centres unmarked)	18.23	-25.8
Cc1cc(C(=O)N(C)CCCn2cccn2)nc(N)n1	15.26	6.75
O=C(c1ccco1)N1CCN2C[C@H](OCc3cccnc3)C[C@H]2C1	11.94	-
CCn1cnnc1C1CCN(C(=O)Cc2ccc(OC)c(F)c2)CC1	16.39	-9.256
O=C(c1nc(=O)[nH][nH]1)N1CCCN(CC2CCCCC2)CC1	15.84	-1.324
O=C(CN1CC(n2cccn2)C1)NCCC1=CCCCC1	21.67	-6.611
COc1cc(CCC(=O)N2CCC(c3cc4ncc(C)nc4[nH]3)C2)on1 (centres unmarked)	8.721	-6.371
COC1CCN(C(=O)NCC(N)=O)CC(=O)N(C)c2ccccc21 (centres unmarked)	17.81	27.57
O=C(NCCNc1ncccn1)c1ccc(OCc2ccccc2)nc1	8.242	-17.06
Cn1cc(C(=O)N2CCOc3ccccc32)ccc1=O	13.64	10.45
O=C(O)C(F)(F)F.[H][C@]12CCN(Cc3nccs3)[C@@]1([H])C[C@@H](C(=O)N1CCOCC1)O2	-	-4.652
Cc1ccc(NC(=O)c2ccc(=O)n(CC(=O)NC3CCCC3)n2)cc1	10.38	-1.578
CN(C)CC1CN(Cc2ccc(-n3cccn3)cc2)CCO1 (centres unmarked)	12.11	-11.45
[H][C@]12CC(COCC(=O)N(C)C)C[C@]1([H])N(Cc1ccco1)CCO2 (some centres unmarked)	-	-6.728
Cc1cc(C)n(CCC(=O)N2CCC(c3nc(C)no3)CC2)n1	-0.2513	2.648
CCOc1ccccc1OCCN(C)Cc1nccn1C	14.29	-26.9
CC(C)CO[C@H]1CN(S(=O)(=O)c2cn(C)cn2)[C@@H]2CCCO[C@H]12	8.741	-

Data taken from ChEMBL document CHEMBL3988442, “University of Dundee, Small-Polar-MMV Screening Library” (2021).